The source of these data is article PMC12757530.

By UniProt entry, the sequences of proteins in these tests, tags left out.
UniProt P46938: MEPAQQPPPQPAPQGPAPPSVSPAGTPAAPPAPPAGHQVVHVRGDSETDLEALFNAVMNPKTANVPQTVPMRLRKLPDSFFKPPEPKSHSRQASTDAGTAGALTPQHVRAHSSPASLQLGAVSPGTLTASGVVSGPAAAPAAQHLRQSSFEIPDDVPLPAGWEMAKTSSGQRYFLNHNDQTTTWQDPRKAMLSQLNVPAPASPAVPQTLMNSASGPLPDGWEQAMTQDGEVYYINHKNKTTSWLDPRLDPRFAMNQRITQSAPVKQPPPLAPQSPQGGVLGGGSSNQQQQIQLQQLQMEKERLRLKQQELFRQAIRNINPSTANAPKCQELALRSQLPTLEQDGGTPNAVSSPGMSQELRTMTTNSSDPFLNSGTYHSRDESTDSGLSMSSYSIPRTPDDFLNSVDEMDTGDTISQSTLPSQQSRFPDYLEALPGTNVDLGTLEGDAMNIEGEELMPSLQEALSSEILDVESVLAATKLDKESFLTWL

No constants are given. Whether binding was seen depends on the method and setting. Binding seen in cells or lysates may run through a third protein. Some binding calls cover weakened binding; strength is not graded here.

This assay has as its target Yes-associated protein (YAP) (mouse (endogenous in mouse skin)) (UniProt P46938). Kind of assay: co-IP; wild-type and Tg mouse skin lysate; IP with anti-YAP antibody, IgG isotype control; Western blot for TMEM207 and YAP. A general note: In western blotting, separated proteins are transferred to a membrane and probed.

B1: Transmembrane protein 207 (TMEM207) (protein, UniProt P86045 30-143)
chain: DLSCEENEMCVNYDERYPDGWYIWFFLLIFLVVLLCGVVLFCLQCWLKRCGINPPRRTMAVFAVGDLDPVYGAEMAGSPTSGICHPTQNTELCSAPCFGALGPPPPYEEILKAN
With B1, the binding entry is “binds”.
